Earlier results in patent publication US6432968B1 (Aventis Pharma Deutschland GmbH, priority 1994, dated 2002).
At least one structure is not confirmed: it was looked up by name or label, or the drawing left a doubt.

Tested on: murine lymphocytic cell line CTLL-2
Conditions: known from literature (Morris 1992); cited from earlier work

In the case of `CO[C@H]1C[C@@H]2CC[C@@H](C)[C@@](O)(O2)C(=O)C(=O)N2CCCC[C@H]2C(=O)O[C@H]([C@H](C)C[C@@H]2CC[C@@H](O)[C@H](OC)C2)CC(=O)[C@H](C)/C=C(\C)[C@@H](O)[C@@H](OC)C(=O)[C@H](C)C[C@H](C)/C=C/C=C/C=C/1C` [RPM, rapamycin, reference compound], the “activity in IL-2R assay” value is given as “effective”.
